The results are deposited in PubChem (AID504749; NCATS, 2011).

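Malaria parasite (P. falciparum) lines kept in red blood cells; parasite DNA is measured by SYBR Green fluorescence after lysis, 72 h after compound addition.
Each compound was titrated across a series from about 0.000037 to 29 µM.
The number is the fitted AC50, the concentration giving a half-maximal change in signal; a lower value means higher potency, whether the curve shows a decrease or an increase.
Calls follow the curve class and fit quality: every row here is inconclusive, covering signal-raising curves and weak, poorly fitted, partial or highest-dose-only inhibition curves.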

Values are in µM.
Every entry below has the call inconclusive.
Only part of the assay is shown, chiefly results filed as inconclusive.
Potencies fitted to partial, single-point or poorly fitting curves are rough.
Some entries filed as inconclusive have a full curve.
The first word of each remark tells which way the curve ran; it can be opposite to the aim of the assay.

| structure | setting | potency (µM) | remark |
|---|---|---|---|
| `CCC1(c2ccccc2)CCC(=O)NC1=O` (stereo not drawn) | 7G8 | 11.22 | inhibitor, single point |
| `CCC1(c2ccccc2)CCC(=O)NC1=O` (stereo not drawn) | HB3 | 11.22 | inhibitor, single point |
| `CCC1(c2ccccc2)CCC(=O)NC1=O` (stereo not drawn) | DIV17 | 19.01 | inhibitor, single point |
| `COc1ccc(Cl)cc1C(=O)NCCc1ccc(S(=O)(=O)NC(=O)NC2CCCCC2)cc1` | W2 | 0.6746 | inhibitor, full curve |
| `COc1ccc(Cl)cc1C(=O)NCCc1ccc(S(=O)(=O)NC(=O)NC2CCCCC2)cc1` | CP215 | 19.01 | inhibitor, single point |
| `COc1ccc(Cl)cc1C(=O)NCCc1ccc(S(=O)(=O)NC(=O)NC2CCCCC2)cc1` | ECU | 0.5623 | inhibitor, single point |
| `CC(C)NC[C@H]1CCc2cc(CO)c([N+](=O)[O-])cc2N1` | CP262 | 2.031 | activator, partial curve, poor fit |
| `CC(C)NC[C@H]1CCc2cc(CO)c([N+](=O)[O-])cc2N1` | CP211 | 0.0005 | inhibitor, partial curve, poor fit |
| `CC(C)(N)Cc1ccc(Cl)cc1` | N140 | 17.78 | inhibitor, single point |
| `CC(C)(N)Cc1ccc(Cl)cc1` | CP194 | 15.1 | inhibitor, partial curve, poor fit |
| `CC(C)(N)Cc1ccc(Cl)cc1` | CP335 | 12 | inhibitor, partial curve, poor fit |
| `CC(C)(N)Cc1ccc(Cl)cc1` | CP203 | 19.01 | inhibitor, single point |
| `CC(C)(N)Cc1ccc(Cl)cc1` | CP329 | 5.358 | inhibitor, partial curve, poor fit |
| `CC(C)(N)Cc1ccc(Cl)cc1` | CP265 | 17.78 | inhibitor, single point |
| `CC(C)(N)Cc1ccc(Cl)cc1` | CP268 | 6.012 | inhibitor, partial curve |
| `CC(C)(N)Cc1ccc(Cl)cc1` | Dd2 | 10 | inhibitor, single point |
| `CC(C)(N)Cc1ccc(Cl)cc1` | PC26 | 6.012 | inhibitor, partial curve, poor fit |
| `CC(C)(N)Cc1ccc(Cl)cc1` | CP297 | 7.569 | inhibitor, partial curve |
| `CC(C)(N)Cc1ccc(Cl)cc1` | JCK | 8.912 | inhibitor, single point |
| `CC(C)(N)Cc1ccc(Cl)cc1` | DIV14 | 8.492 | inhibitor, partial curve |
| `CC(C)(N)Cc1ccc(Cl)cc1` | W2 | 12 | inhibitor, single point |
| `CC(C)(N)Cc1ccc(Cl)cc1` | 7G8 | 12.59 | inhibitor, partial curve, poor fit |
| `CC(C)(N)Cc1ccc(Cl)cc1` | AA1029 | 17.78 | inhibitor, single point |
| `CC(C)(N)Cc1ccc(Cl)cc1` | ATS189 | 10 | inhibitor, single point |
| `CC(C)(N)Cc1ccc(Cl)cc1` | ATS95 | 17.78 | inhibitor, single point |
| `CC(C)(N)Cc1ccc(Cl)cc1` | CP305 | 6.746 | inhibitor, partial curve, poor fit |
| `CCCN1CCC[C@H](c2cccc(O)c2)C1` | Dd2 | 12.59 | inhibitor, partial curve |
| `CCCN1CCC[C@H](c2cccc(O)c2)C1` | CP297 | 12 | inhibitor, single point |
| `CCCN1CCC[C@H](c2cccc(O)c2)C1` | DIV17 | 13.46 | inhibitor, single point |
| `CCCN1CCC[C@H](c2cccc(O)c2)C1` | CP247 | 1.122 | inhibitor, single point |
| `CCCN1CCC[C@H](c2cccc(O)c2)C1` | CP237 | 12.59 | inhibitor, single point |
| `CCC(C)C(=O)OC1CCC=C2C=CC(C)C(CCC3CC(O)CC(=O)O3)[C@@H]21` (stereo partly drawn) | Dd2 | 0.0562 | inhibitor, full curve |
| `O=c1[nH]oc2c1CCNC2` | JCK | 14.13 | inhibitor, single point |
| `NC(=NCCCCCCN=C(N)/N=C(\N)Nc1ccc(Cl)cc1)/N=C(\N)Nc1ccc(Cl)cc1` | CP265 | 0.0011 | inhibitor, full curve, poor fit |
| `NC(=NCCCCCCN=C(N)/N=C(\N)Nc1ccc(Cl)cc1)/N=C(\N)Nc1ccc(Cl)cc1` | CP203 | 4.256 | activator |
| `C[C@H](N[C@@H](C)COc1ccccc1)[C@H](O)c1ccc(O)cc1` | CP266 | 7.208 | inhibitor, single point |
| `C[C@H](N[C@@H](C)COc1ccccc1)[C@H](O)c1ccc(O)cc1` | GB4 | 5.103 | inhibitor, partial curve |
| `C[C@H](N[C@@H](C)COc1ccccc1)[C@H](O)c1ccc(O)cc1` | DIV17 | 9.074 | inhibitor, single point |
| `C[C@H](N[C@@H](C)COc1ccccc1)[C@H](O)c1ccc(O)cc1` | DIV14 | 3.612 | inhibitor, partial curve |
| `C[C@H](N[C@@H](C)COc1ccccc1)[C@H](O)c1ccc(O)cc1` | CP297 | 8.087 | inhibitor, single point |
| `C[C@H](N[C@@H](C)COc1ccccc1)[C@H](O)c1ccc(O)cc1` | CP203 | 8.087 | inhibitor, single point |
| `C[C@H](N[C@@H](C)COc1ccccc1)[C@H](O)c1ccc(O)cc1` | Dd2 | 3.162 | inhibitor, single point |
| `COc1cc(OC)c(C(=O)CCCN2CCCC2)c(OC)c1` | DIV17 | 0.0144 | activator, full curve, poor fit |
| `O=[N+]([O-])c1c(Cl)cccc1-c1c[nH]cc1Cl` | 7G8 | 12.59 | inhibitor, partial curve |
| `O=[N+]([O-])c1c(Cl)cccc1-c1c[nH]cc1Cl` | DIV14 | 15.1 | inhibitor, partial curve, poor fit |
| `O=[N+]([O-])c1c(Cl)cccc1-c1c[nH]cc1Cl` | ICS | 17.78 | inhibitor, single point |
| `O=[N+]([O-])c1c(Cl)cccc1-c1c[nH]cc1Cl` | W2 | 12 | inhibitor, single point |

The first 5 entries again:

structure,setting,potency (µM),remark
CCC1(c2ccccc2)CCC(=O)NC1=O (stereo not drawn),7G8,11.22,"inhibitor, single point"
CCC1(c2ccccc2)CCC(=O)NC1=O (stereo not drawn),HB3,11.22,"inhibitor, single point"
CCC1(c2ccccc2)CCC(=O)NC1=O (stereo not drawn),DIV17,19.01,"inhibitor, single point"
COc1ccc(Cl)cc1C(=O)NCCc1ccc(S(=O)(=O)NC(=O)NC2CCCCC2)cc1,W2,0.6746,"inhibitor, full curve"
COc1ccc(Cl)cc1C(=O)NCCc1ccc(S(=O)(=O)NC(=O)NC2CCCCC2)cc1,CP215,19.01,"inhibitor, single point"